Results taken from patent US10189786B2, “Antibacterial compounds” (Duke University, priority 2013, dated 2019).
For some assays here: At least one read-out could not be matched to a standard name with certainty. For some assays here: At least one structure is not confirmed: it was looked up by name or label, or the drawing left a doubt.

Experiments:
[1] = system: N. gonorrhoeae FA19 (a drug-sensitive strain); assay: Disk diffusion assay, N. gonorrhoeae FA19; type: cell-based; conditions: 2.0 μg per disc, disc 6 mm
Experimental: An assay was performed on two strains of Acinetobacter Baumannii: antibiotic susceptible strain (Sus. A.b. Isolate), and multidrug-resistant strains (MDR A.b. Isolate). […] Activity is measured as the diameter (in mm) of the growth inhibition.

[2] = system: N. gonorrhoeae (FA35/02); conditions: description of the resistance of strain 35/02; cited from earlier work

SMILES	diameter of the growth inhibition, FA19 [1] [mm]	other results
C[C@@](O)(C(F)F)[C@H](NCc1ccc(-c2ccccc2)cc1)C(=O)NO [Example 5, (2S,3S)-2-(biphenyl-4-ylmethylamino)-4,4-difluoro-N,3-dihydroxy-3-methylbutanamide]	20	–
C[C@@](O)(C(F)F)[C@H](NCCCc1ccc(-c2ccccc2)cc1)C(=O)NO [Example 11, (2S,3S)-2-(3-(biphenyl-4-yl)propylamino)-4,4-difluoro-N,3-dihydroxy-3-methylbutanamide]	30	–
CC(CCc1ccc(-c2ccccc2)cc1)(C(=O)NO)C(C)(O)C(F)F (single isomer, unassigned) [Example 3 Isomer A, 2-(2-(biphenyl-4-yl)ethyl)-4,4-difluoro-N,3-dihydroxy-2,3-dimethylbutanamide]	–	diameter of the growth inhibition, FA19 ([1]; listed as 3 (Isomer A)): 26 mm
C=CC1=C(C(=O)O)N2C(=O)[C@@H](NC(=O)/C(=N\OCC(=O)O)c3csc(N)n3)[C@H]2SC1 [cefixime]	–	MIC of reference antibiotics against N. gonorrhoeae 35/02 [2]: 0.28 µg/mL
C[C@@](O)(C(F)F)[C@H](NC(=O)CCc1ccc(-c2ccccc2)cc1)C(=O)NO [Example 14, (2S,3S)-2-(3-(biphenyl-4-yl)propanamido)-4,4-difluoro-N,3-dihydroxy-3-methylbutanamide]	29	–
